We go through eleven substances from PMC8110956, “An infection-induced RhoB-Beclin 1-Hsp90 complex enhances clearance of uropathogenic Escherichia coli” (Nature Communications, 2021).

Sequences of proteins named here, by UniProt entry; tags and fusion partners are left off. A change or cut given only in a name is not applied to a line headed by its entry.
UniProt P62745: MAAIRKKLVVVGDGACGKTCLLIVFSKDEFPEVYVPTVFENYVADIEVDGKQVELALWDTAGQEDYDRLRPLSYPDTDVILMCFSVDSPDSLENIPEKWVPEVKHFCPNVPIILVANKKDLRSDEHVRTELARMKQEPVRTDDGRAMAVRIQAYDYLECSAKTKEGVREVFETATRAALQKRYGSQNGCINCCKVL
UniProt Q14457: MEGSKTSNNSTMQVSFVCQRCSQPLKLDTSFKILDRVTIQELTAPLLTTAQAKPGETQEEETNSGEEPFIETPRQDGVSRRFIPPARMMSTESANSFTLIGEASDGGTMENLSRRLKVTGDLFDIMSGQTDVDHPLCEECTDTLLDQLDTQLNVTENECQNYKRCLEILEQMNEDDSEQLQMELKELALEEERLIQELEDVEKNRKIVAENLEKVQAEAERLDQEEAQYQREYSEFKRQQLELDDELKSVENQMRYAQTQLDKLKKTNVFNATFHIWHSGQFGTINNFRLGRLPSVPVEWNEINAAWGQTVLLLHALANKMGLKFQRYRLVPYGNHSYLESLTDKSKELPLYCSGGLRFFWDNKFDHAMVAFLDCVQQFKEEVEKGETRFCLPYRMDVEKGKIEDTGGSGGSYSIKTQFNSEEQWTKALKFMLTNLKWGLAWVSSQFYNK

Assay [1] addresses 3×FLAG-RhoB (wild type) (human) (UniProt P62745). Description: co-IP; HEK293 co-transfected with MYC-Beclin 1 and FLAG- or 3×FLAG-RhoB constructs, 48 h; lysate (50 mM Tris-HCl pH 7.4, 150 mM NaCl, 1% NP-40) on anti-FLAG or anti-c-MYC beads overnight at 4 °C, eluted with 3×FLAG or c-MYC peptide; western blot. For orientation: In western blotting, separated proteins are transferred to a membrane and probed.

Another assay deals with GST-fused RhoB (human) (UniProt P62745). Briefly: pull-down; about 1 μg of each purified GST-fused protein combined in 0.8% BSA in PBS at 4 °C overnight; precipitated with anti-RhoB or anti-Beclin 1 antibody (IgG as control) plus protein G Sepharose; western blot; both purified.
In another assay the target is FLAG-RhoB-C193S (human) (UniProt P62745). Description: co-IP; HEK293 co-transfected with MYC-Beclin 1 and FLAG- or 3×FLAG-RhoB constructs, 48 h; lysate (50 mM Tris-HCl pH 7.4, 150 mM NaCl, 1% NP-40) on anti-FLAG or anti-c-MYC beads overnight at 4 °C, eluted with 3×FLAG or c-MYC peptide; western blot.
The target of a further assay is T1, GST-fused Beclin 1 (human, UniProt Q14457 1-450).
T1 construct: Beclin 1, in pGEX4T-3; also called GST-Beclin 1; source: E. coli BL21 (DE3), purified (Glutathione Sepharose 4B)
Description: pull-down; about 1 μg of each purified GST-fused protein combined in 0.8% BSA in PBS at 4 °C overnight; precipitated with anti-RhoB or anti-Beclin 1 antibody (IgG as control) plus protein G Sepharose; western blot; both purified.

Assay [2] addresses MYC-tagged Beclin 1 (human) (UniProt Q14457). Description: co-IP; HEK293 co-transfected with MYC-Beclin 1 and FLAG- or 3×FLAG-RhoB constructs, 48 h; lysate (50 mM Tris-HCl pH 7.4, 150 mM NaCl, 1% NP-40) on anti-FLAG or anti-c-MYC beads overnight at 4 °C, eluted with 3×FLAG or c-MYC peptide; western blot.

No constants are given. Whether binding was seen depends on the method and setting. For part of these data: Binding calls can cover weak binding; strength is not graded here. For part of these data: In cells and extracts the contact can be indirect.

Regarding “MYC-Beclin 1 (1–244) (from UniProt Q14457 1-244) (domain or fragment)”, the binding result in assay [1] was “binds”.

As for “GST-Beclin 1 (150–450) (from UniProt Q14457 150-450) (domain or fragment)”, the binding entry with GST-fused RhoB (human) was “binds”.

With “MYC-Beclin 1 (1–337) (from UniProt Q14457 1-337) (domain or fragment)”, in assay [1], the binding result was “binds”.

As to “MYC-tagged Beclin 1 (from UniProt Q14457 1-450)”, the binding entry with FLAG-RhoB-C193S (human) was “no binding”; in assay [1] it was “binds”.

Turning to “GST-Beclin 1 (88–450) (from UniProt Q14457 88-450) (domain or fragment)”, the binding entry with GST-fused RhoB (human) is “binds”.

Take GST-fused RhoB (from UniProt P62745): the binding result with GST-fused Beclin 1 is “binds”.

With “MYC-Beclin 1 (1–150) (from UniProt Q14457 1-150) (domain or fragment)”, in assay [1], the binding entry is “no binding”.

On to “GST-fused Beclin 1 (from UniProt Q14457 1-450)”, for which, in the assay with GST-fused RhoB (human), the binding entry is listed as “binds”.

Regarding “MYC-Beclin 1 (1–88) (from UniProt Q14457 1-88) (domain or fragment)”, in assay [1], the binding entry is given as “no binding”.

For the substance “MYC-Beclin 1 (150–450) (from UniProt Q14457 150-450) (domain or fragment)”, the binding result in assay [1] is listed as “binds”.

Turning to FLAG-RhoB-C193S (from UniProt P62745), the binding result in assay [2] was “no binding”.
